Data on one molecule can be found in patent US20250223573A1.

Protein sequences, listed by entry. Tags and fused reporters are not part of them. Lines headed by an entry give the natural chain unless they say otherwise; changes in a name come on top.
UniProt P04386: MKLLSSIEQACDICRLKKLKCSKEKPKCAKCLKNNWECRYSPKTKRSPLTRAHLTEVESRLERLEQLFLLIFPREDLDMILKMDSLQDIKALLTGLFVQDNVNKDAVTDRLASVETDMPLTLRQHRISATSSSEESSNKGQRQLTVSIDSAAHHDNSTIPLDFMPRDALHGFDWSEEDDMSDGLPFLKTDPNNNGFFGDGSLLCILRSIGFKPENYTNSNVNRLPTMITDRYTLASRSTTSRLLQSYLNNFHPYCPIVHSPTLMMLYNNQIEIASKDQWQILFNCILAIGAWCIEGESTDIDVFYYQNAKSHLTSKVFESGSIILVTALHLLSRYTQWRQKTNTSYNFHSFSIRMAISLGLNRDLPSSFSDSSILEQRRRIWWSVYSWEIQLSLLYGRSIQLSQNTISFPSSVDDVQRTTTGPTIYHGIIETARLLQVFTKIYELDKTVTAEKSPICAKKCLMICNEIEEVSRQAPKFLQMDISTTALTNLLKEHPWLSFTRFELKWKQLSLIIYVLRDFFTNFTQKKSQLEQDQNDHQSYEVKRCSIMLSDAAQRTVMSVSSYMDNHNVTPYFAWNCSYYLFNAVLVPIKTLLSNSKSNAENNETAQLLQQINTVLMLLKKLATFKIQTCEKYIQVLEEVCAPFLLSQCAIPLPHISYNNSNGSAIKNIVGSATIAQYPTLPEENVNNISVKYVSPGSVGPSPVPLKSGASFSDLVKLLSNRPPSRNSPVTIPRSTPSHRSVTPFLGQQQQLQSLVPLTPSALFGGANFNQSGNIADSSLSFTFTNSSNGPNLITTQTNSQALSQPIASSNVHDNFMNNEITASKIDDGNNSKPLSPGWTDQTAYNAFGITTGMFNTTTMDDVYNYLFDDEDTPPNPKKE
UniProt Q9LD43: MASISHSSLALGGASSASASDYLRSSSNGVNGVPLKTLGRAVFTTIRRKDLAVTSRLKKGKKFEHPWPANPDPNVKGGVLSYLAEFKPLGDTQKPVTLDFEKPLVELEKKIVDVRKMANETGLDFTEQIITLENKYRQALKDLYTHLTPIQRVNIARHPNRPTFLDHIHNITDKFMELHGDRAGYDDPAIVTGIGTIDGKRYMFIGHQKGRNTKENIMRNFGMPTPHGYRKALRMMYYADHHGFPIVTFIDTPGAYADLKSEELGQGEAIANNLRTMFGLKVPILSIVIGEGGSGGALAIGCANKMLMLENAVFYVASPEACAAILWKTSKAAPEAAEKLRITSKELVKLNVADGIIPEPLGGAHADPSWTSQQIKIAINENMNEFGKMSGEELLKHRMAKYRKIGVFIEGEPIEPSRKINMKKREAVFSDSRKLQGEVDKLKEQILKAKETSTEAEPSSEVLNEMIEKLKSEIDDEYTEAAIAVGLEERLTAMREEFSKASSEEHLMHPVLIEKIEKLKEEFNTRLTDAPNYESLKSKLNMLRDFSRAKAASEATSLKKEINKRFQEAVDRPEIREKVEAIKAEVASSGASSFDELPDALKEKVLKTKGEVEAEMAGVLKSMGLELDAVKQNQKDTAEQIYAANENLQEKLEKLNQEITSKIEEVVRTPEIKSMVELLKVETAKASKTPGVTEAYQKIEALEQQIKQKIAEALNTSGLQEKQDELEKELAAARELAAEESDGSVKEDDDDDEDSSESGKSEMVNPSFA

The experiment deals with α-CT coiled coil domain (30 kDa non-catalytic domain) fused to GAL4 DNA-binding domain (Arabidopsis thaliana) (UniProt P04386+Q9LD43). Nature of the experiment: yeast two-hybrid screen of Arabidopsis cDNA library, α-CT coiled-coil domain as bait.

These are yes or no findings as the source states them, for the method shown. Some entries that bind do so weakly or less than the wild type.

B1: CTI1 (positive clone of the Arabidopsis cDNA library in the yeast two-hybrid screen) (protein, not shown: large carriers)
chain: MASLSSTSLSLPKNSHQLHPSSGFSLNPNARCVSVSFGLNHSNKLHISAPRTKRILTIQSAYRDDDGSGSTGLFVGGFILGGLIVGALGCVYAPQISKAIAGADRKDLMRKLPKFIYDEEKALEKTRKVLAEKIAQLNSAIDDVSSQLKSEDTPNGAALSTDEIEATA
In the case of B1, the binding result is “binds”.
